Results are given in words; binding and its absence hold for the method and conditions named. In cells and extracts the contact can be indirect. Some entries that bind do so weakly or less than the wild type.

Sequences of proteins named here, by UniProt entry; tags and fusion partners are left off.
UniProt P54283: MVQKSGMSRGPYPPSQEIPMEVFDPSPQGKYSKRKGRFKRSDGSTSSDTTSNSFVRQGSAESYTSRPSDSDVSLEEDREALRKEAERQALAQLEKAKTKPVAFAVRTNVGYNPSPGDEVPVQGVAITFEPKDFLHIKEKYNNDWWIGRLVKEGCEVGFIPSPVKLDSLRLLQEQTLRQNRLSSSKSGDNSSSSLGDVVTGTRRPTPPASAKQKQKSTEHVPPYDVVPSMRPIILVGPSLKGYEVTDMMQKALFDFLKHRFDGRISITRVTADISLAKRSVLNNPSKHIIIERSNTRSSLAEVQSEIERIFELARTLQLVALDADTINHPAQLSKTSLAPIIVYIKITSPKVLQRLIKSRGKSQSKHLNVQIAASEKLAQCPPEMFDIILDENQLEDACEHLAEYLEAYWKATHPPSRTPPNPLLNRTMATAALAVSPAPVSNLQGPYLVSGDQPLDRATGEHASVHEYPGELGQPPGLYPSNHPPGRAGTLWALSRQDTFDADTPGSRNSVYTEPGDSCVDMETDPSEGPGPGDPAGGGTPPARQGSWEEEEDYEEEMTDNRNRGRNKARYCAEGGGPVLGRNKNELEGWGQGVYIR
UniProt O43497: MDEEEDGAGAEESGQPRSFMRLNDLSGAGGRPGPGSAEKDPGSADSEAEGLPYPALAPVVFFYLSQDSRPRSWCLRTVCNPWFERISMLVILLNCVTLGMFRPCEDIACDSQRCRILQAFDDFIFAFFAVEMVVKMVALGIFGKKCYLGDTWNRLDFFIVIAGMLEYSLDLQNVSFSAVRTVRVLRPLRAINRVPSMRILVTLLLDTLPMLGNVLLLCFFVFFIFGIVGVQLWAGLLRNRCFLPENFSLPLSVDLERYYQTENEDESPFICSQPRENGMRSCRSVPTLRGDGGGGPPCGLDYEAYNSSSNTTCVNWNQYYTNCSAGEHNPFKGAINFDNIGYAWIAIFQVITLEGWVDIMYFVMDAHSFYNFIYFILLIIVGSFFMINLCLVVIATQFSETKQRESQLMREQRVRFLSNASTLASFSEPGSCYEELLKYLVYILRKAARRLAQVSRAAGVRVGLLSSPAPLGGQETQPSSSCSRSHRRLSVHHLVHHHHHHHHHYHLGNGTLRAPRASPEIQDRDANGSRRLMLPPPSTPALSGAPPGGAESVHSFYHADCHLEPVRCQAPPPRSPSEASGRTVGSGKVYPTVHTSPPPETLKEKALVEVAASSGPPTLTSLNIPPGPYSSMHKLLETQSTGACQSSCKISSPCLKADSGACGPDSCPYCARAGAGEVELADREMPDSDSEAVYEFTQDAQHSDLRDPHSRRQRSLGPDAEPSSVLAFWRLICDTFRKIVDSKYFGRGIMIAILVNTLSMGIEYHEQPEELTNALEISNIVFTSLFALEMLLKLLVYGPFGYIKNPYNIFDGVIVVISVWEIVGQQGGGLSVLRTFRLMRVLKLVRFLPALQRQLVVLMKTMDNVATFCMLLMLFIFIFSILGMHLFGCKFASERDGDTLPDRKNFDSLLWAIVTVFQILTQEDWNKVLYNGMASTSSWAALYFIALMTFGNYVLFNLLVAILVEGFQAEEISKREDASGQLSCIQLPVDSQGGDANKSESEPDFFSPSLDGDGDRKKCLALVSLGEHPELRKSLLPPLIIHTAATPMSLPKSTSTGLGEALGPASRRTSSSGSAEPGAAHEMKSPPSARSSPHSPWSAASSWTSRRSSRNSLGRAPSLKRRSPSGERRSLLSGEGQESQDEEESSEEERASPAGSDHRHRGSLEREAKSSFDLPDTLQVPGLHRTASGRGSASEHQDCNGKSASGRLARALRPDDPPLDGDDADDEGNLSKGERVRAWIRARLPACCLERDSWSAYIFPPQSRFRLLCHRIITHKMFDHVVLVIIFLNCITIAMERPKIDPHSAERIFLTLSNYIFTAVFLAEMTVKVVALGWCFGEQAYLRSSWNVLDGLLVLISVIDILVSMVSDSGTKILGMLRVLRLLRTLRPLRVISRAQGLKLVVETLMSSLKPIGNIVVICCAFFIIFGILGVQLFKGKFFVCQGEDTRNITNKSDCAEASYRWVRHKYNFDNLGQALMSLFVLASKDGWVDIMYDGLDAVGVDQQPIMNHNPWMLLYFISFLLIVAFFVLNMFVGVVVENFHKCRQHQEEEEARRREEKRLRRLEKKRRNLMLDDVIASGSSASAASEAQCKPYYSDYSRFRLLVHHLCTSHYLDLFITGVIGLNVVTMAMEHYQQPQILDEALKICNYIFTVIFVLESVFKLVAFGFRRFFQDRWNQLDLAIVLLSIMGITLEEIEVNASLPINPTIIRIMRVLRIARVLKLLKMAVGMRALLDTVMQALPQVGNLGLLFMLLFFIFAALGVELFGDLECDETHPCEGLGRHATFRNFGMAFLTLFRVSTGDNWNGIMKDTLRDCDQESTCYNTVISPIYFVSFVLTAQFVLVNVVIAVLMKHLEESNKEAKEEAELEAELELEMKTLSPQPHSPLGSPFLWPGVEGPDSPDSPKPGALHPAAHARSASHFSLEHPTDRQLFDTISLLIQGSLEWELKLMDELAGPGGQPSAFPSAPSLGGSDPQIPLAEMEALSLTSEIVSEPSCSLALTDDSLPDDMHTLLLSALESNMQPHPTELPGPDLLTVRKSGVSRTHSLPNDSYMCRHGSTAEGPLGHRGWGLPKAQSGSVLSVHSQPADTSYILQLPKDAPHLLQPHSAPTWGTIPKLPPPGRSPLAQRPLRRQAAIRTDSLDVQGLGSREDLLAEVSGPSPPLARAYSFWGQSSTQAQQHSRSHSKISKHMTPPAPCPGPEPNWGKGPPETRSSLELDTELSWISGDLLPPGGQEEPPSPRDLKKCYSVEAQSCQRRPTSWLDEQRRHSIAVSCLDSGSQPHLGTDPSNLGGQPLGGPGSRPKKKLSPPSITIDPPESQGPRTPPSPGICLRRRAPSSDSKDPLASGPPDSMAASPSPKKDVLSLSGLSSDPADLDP
UniProt Q01815: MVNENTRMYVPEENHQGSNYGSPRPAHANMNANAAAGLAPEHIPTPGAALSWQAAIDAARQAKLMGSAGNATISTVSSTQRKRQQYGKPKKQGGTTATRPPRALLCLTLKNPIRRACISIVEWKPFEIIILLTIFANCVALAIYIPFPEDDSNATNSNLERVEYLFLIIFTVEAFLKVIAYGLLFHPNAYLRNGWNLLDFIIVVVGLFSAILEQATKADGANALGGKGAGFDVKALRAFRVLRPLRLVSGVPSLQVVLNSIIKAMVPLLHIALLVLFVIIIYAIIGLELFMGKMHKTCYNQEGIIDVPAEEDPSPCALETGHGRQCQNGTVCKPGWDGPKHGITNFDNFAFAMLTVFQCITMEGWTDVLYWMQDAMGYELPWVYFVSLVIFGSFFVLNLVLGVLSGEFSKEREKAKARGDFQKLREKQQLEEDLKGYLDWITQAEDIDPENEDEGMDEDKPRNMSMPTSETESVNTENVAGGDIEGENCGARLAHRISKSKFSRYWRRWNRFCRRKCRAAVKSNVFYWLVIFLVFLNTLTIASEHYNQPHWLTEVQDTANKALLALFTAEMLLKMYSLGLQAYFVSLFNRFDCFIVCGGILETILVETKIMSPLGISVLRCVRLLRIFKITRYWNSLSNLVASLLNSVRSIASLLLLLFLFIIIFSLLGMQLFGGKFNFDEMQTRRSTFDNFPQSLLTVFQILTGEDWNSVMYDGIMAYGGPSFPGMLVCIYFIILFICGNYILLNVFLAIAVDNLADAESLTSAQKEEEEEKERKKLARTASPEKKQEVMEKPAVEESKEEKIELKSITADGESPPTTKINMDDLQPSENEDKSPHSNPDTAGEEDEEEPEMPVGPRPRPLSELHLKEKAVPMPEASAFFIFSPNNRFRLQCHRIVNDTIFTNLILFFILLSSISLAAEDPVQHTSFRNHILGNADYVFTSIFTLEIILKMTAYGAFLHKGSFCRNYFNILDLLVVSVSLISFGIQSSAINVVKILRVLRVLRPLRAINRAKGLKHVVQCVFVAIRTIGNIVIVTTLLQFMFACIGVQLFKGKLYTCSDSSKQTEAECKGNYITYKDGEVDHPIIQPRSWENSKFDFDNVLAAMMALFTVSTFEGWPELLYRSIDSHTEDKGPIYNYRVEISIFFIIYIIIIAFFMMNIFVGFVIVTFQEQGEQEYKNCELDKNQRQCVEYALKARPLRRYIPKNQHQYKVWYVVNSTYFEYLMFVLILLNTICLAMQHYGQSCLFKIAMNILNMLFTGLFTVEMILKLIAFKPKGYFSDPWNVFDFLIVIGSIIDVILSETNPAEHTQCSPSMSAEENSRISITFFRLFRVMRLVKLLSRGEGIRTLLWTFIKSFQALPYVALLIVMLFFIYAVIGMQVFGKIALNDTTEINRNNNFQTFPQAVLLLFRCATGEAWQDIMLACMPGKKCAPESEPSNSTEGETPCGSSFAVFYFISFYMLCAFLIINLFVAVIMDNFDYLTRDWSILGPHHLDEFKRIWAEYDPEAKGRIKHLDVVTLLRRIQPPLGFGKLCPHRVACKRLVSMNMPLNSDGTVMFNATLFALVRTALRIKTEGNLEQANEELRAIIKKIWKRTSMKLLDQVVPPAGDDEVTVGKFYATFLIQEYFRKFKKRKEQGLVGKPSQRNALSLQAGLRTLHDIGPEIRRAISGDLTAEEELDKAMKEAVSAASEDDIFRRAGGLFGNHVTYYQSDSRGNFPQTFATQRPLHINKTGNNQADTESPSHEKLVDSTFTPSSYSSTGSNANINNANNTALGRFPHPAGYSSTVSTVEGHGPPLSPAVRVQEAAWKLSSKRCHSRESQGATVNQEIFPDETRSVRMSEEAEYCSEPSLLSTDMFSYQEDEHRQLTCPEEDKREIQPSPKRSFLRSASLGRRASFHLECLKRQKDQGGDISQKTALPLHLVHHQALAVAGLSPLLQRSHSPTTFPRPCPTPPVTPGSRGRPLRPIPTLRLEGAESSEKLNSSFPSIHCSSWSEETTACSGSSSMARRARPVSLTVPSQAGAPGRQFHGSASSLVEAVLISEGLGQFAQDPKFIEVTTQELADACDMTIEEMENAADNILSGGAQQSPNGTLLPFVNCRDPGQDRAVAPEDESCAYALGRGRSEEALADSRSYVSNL

Assay [1] deals with β1b-BFP (CaVβ1b subunit, N-terminally tagged with BFP) (UniProt P54283). Kind of assay: FRET or BRET; sensitized emission FRET by confocal microscopy in HEK-293 cells co-transfected with a GFP-tagged α1-subunit and BFP-β1b; FRET index calculated pixel by pixel.
Assay [2] deals with β1b-HA (CaVβ1b subunit tagged with HA) (UniProt P54283). Kind of assay: co-IP; 1 mg total protein extract (RIPA) of β1b-HA cells mixed with 1 mg extract of CaV1.2-GFP or CaV3.3-GFP cells, overnight at 4 °C with Anti-HA Affinity Matrix; beads rinsed three times with RIPA buffer; blot with anti-GFP.

For “CaV3.1-GFP channel (α1-subunit of CaV3.1 cloned at the 3' end of GFP in pEGFP-C1) (from UniProt O43497 1-2377)”, the binding result in assay [1] is given as “no binding”.

Turning to “CaV3.2-GFP channel (α1-subunit of CaV3.2 cloned at the 3' end of GFP in pEGFP-C1) (from UniProt O95180 1-2353)”, the binding entry in assay [1] is on record as “no binding”.

For the substance “CaV1.2-GFP channel (α1-subunit of CaV1.2, N-terminally tagged with GFP) (from UniProt Q01815 1-2139)”, the binding entry in assay [1] and in assay [2] was “binds” in each case.

The values above are taken from PMC6236959.
